These are yes or no findings as the source states them, for the method shown. In cells and extracts the contact can be indirect. Some entries that bind do so weakly or less than the wild type. For some assays here: Where a sequence is shown, tags or fusion partners need not be part of it.
T1: heterogeneous nuclear ribonucleoprotein R (hnRNP R) (mouse (endogenous in primary motoneurons)) (UniProt Q8VHM5)
T1 sequence: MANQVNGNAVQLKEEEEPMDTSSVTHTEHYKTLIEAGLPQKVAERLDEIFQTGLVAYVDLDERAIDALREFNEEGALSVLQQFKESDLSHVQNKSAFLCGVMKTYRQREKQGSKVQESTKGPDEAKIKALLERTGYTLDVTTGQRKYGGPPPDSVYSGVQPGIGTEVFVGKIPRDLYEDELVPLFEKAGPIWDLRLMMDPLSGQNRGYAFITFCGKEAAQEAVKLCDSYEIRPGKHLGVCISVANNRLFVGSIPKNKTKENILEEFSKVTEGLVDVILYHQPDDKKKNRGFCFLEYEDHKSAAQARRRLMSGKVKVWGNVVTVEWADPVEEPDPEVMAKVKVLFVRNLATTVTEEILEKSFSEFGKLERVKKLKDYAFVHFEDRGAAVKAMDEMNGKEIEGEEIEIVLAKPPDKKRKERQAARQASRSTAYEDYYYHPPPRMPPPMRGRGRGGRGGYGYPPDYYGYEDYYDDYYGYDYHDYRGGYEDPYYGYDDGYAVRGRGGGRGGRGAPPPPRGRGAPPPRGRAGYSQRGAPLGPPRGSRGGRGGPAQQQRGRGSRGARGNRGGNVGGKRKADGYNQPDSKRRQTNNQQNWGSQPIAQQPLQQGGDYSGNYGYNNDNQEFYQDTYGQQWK

Protein sequences, listed by entry. Tags and fused reporters are not part of them.
UniProt Q6ZWX6: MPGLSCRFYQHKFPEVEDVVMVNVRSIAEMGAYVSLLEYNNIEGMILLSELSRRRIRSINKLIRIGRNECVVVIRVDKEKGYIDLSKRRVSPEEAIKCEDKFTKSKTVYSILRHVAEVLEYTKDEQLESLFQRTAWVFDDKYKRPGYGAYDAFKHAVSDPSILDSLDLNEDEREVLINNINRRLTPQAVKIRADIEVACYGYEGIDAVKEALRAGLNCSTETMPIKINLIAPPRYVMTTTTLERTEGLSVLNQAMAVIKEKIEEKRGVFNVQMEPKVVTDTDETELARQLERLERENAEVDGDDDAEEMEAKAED

B1: O-linked β-N-acetylglucosamine (O-GlcNAc) transferase (Ogt) (enzyme, UniProt Q8CGY8 1-1046)
chain: MASSVGNVADSTEPTKRMLSFQGLAELAHREYQAGDFEAAERHCMQLWRQEPDNTGVLLLLSSIHFQCRRLDRSAHFSTLAIKQNPLLAEAYSNLGNVYKERGQLQEAIEHYRHALRLKPDFIDGYINLAAALVAAGDMEGAVQAYVSALQYNPDLYCVRSDLGNLLKALGRLEEAKACYLKAIETQPNFAVAWSNLGCVFNAQGEIWLAIHHFEKAVTLDPNFLDAYINLGNVLKEARIFDRAVAAYLRALSLSPNHAVVHGNLACVYYEQGLIDLAIDTYRRAIELQPHFPDAYCNLANALKEKGSVAEAEDCYNTALRLCPTHADSLNNLANIKREQGNIEEAVRLYRKALEVFPEFAAAHSNLASVLQQQGKLQEALMHYKEAIRISPTFADAYSNMGNTLKEMQDVQGALQCYTRAIQINPAFADAHSNLASIHKDSGNIPEAIASYRTALKLKPDFPDAYCNLAHCLQIVCDWTDYDERMKKLVSIVAEQLEKNRLPSVHPHHSMLYPLSHGFRKAIAERHGNLCLDKINVLHKPPYEHPKDLKLSDGRLRVGYVSSDFGNHPTSHLMQSIPGMHNPDKFEVFCYALSPDDGTNFRVKVMAEANHFIDLSQIPCNGKAADRIHQDGIHILVNMNGYTKGARNELFALRPAPIQAMWLGYPGTSGALFMDYIITDQETSPAEVAEQYSEKLAYMPHTFFIGDHANMFPHLKKKAVIDFKSNGHIYDNRIVLNGIDLKAFLDSLPDVKIVKMKCPDGGDNPDSSNTALNMPVIPMNTIAEAVIEMINRGQIQITINGFSISNGLATTQINNKAATGEEVPRTIIVTTRSQYGLPEDAIVYCNFNQLYKIDPSTLQMWANILKRVPNSVLWLLRFPAVGEPNIQQYAQNMGLPQNRIIFSPVAPKEEHVRRGQLADVCLDTPLCNGHTTGMDVLWAGTPMVTMPGETLASRVAASQLTCLGCLELIAKSRQEYEDIAVKLGTDLEYLKKIRGKVWKQRISSPLFNTKQYTMELERLYLQMWEHYAAGNKPDHMIKPVEVTESA

Tests used:
[1] = biological target: T1, heterogeneous nuclear ribonucleoprotein R (hnRNP R) (mouse (endogenous in primary motoneurons)); experiment: proximity ligation; Duolink In Situ PLA on fixed, permeabilised cultured mouse motoneurons (Hnrnpr +/+ and -/-; some treated with DMSO, TMG or OSMI-1), pairs of primary antibodies against the two endogenous proteins
[2] = biological target: T1, heterogeneous nuclear ribonucleoprotein R (hnRNP R) (mouse (endogenous in primary motoneurons)); experiment: co-IP; anti-hnRNP R antibody on magnetic Dynabeads Protein A or G, whole lysate of primary mouse motoneurons (DIV 7), without or with Benzonase; lysis 10 mM HEPES pH 7.0, 100 mM KCl, 5 mM MgCl2, 0.5% NP-40; overnight at 4 °C; immunoblot
[3] = biological target: T1, heterogeneous nuclear ribonucleoprotein R (hnRNP R) (mouse (endogenous in primary motoneurons)); experiment: proximity ligation; Duolink In Situ PLA on fixed, permeabilised cultured mouse motoneurons (Hnrnpr +/+ and -/-; some treated with DMSO, TMG or OSMI-1), pairs of primary antibodies against the two endogenous proteins; remark: listed apart in the source
[4] = biological target: T1, heterogeneous nuclear ribonucleoprotein R (hnRNP R) (mouse (endogenous in primary motoneurons)); experiment: co-IP; anti-hnRNP R immunoprecipitation from axonal lysate of compartmentalised motoneurons, immunoblot for Ogt
[5] = biological target: T1, heterogeneous nuclear ribonucleoprotein R (hnRNP R) (mouse (endogenous in primary motoneurons)); experiment: co-IP; anti-hnRNP R immunoprecipitation from somatodendritic lysate of compartmentalised motoneurons, immunoblot for Ogt

Molecule	binding [1]	binding [2]	binding [3]	binding [4]	binding [5]
eIF2α (from UniProt Q6ZWX6 1-315)	binds	binds	–	–	–
B1	–	–	binds	binds	no binding (condition: somatodendritic compartment lysate)

Reference: article PMC11358521
